PubChem BioAssay AID1159584 | Peter MacCallum Cancer Centre | 2016

- Assay: 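Genes whose loss is lethal only together with E-cadherin loss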 (primary screen)
- Cells: human MCF10A breast epithelial cells, parental and CDH1-null
- Knock-down reagent: siRNA against human genes
- Detection: 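ATP luminescence (CellTiter-Glo) viability per line relative to mean mock wells over all plates, and the ratio of CDH1-null to parental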
- Reading the numbers: CDH1-null / parental viability ratio: higher = CDH1-null cells survive relatively better than parental
This is one part, drawn at random, of about 18,000 reagents. Reagents against one gene are numbered here. Further read-outs or replicates are left out here. Reagent sequences are not shown. Not stated in the record: the amount of reagent, the time to read-out.

no.	target gene	reagent no.	CDH1-null / parental viability ratio
1	SLCO3A1	1	1.25
2	CCDC89 (coiled-coil domain containing 89)	1	0.97
3	FRA10AC1 (FRA10A associated CGG repeat 1)	1	1.14
4	AFG3L2 (AFG3 like matrix AAA peptidase subunit 2)	1	1.31
5	TMEM102 (transmembrane protein 102)	1	1.09
6	HUNK (hormonally up-regulated Neu-associated kinase)	1	0.87
7	BCKDHA (branched chain keto acid dehydrogenase E1 subunit alpha)	1	1.47
8	ZDHHC1 (zDHHC palmitoyltransferase 1)	1	1.7
9	MOB3A (MOB kinase activator 3A)	1	1.14
10	CERS1 (ceramide synthase 1)	1	1
11	LYZL6 (lysozyme like 6)	1	1.19
12	WIPI2 (WD repeat domain, phosphoinositide interacting 2)	1	1.38
13	SLC6A6	1	1.01
14	HAPLN2 (hyaluronan and proteoglycan link protein 2)	1	1
15	NR4A2 (nuclear receptor subfamily 4 group A member 2)	1	0.81
16	ASPG (asparaginase)	1	0.93
17	MSRA (methionine sulfoxide reductase A)	1	1.03
18	RAP2A (RAP2A, member of RAS oncogene family)	1	0.99
19	AK7 (adenylate kinase 7)	1	1.09
20	HNRNPR (heterogeneous nuclear ribonucleoprotein R)	1	1.09
21	IRF6 (interferon regulatory factor 6)	1	1.02
22	TRIM34 (tripartite motif containing 34)	1	0.84
23	RSPH4A (radial spoke head component 4A)	1	0.82
24	EGR4 (early growth response 4)	1	1.07
25	OTX2 (orthodenticle homeobox 2)	1	0.92
26	MRPS10 (mitochondrial ribosomal protein S10)	1	1.2
27	SLC7A14	1	1.05
28	CFB (complement factor B)	1	1.11
29	EPHA3 (EPH receptor A3)	1	0.9
30	CD109 (CD109 molecule)	1	1.07
31	IRAK3 (interleukin 1 receptor associated kinase 3)	1	0.97
32	TNK1 (tyrosine kinase non receptor 1)	1	0.75
33	CEACAM4 (CEA cell adhesion molecule 4)	1	0.94
34	ATP1B4 (ATPase Na+/K+ transporting family member beta 4)	1	0.92
35	TOB1 (transducer of ERBB2, 1)	1	1.08
36	EEPD1	1	0.95
37	MON2 (MON2 regulator of endosome-to-Golgi trafficking)	1	0.9
38	RNF213 (ring finger protein 213)	1	0.88
39	RNF213 (ring finger protein 213)	2	0.96
40	PI16 (peptidase inhibitor 16)	1	1.04
41	CCDC136 (coiled-coil domain containing 136)	1	1.14
42	NKAIN2 (sodium/potassium transporting ATPase interacting 2)	1	1.17
43	ECD (ecdysoneless cell cycle regulator)	1	0.74

Copied from the list.
Entry for FRA10AC1 (FRA10A associated CGG repeat 1) in “CDH1-null / parental viability ratio”: 1.14
Entry of ECD (ecdysoneless cell cycle regulator) under “CDH1-null / parental viability ratio”: 0.74
SLC6A6, CDH1-null / parental viability ratio → 1.01
EEPD1, CDH1-null / parental viability ratio = 0.95
TNK1 (tyrosine kinase non receptor 1), CDH1-null / parental viability ratio → 0.75
CCDC89 (coiled-coil domain containing 89), CDH1-null / parental viability ratio: 0.97

Continued:
no.	target gene	reagent no.	CDH1-null / parental viability ratio
44	THOC5 (THO complex subunit 5)	1	0.88
45	ADISSP (adipose secreted signaling protein)	1	0.84
46	MAZ (MYC associated zinc finger protein)	1	0.98
47	GPC4 (glypican 4)	1	0.88
48	LYZ (lysozyme)	1	0.95
49	KAT6B (lysine acetyltransferase 6B)	1	0.9
50	RAB33A (RAB33A, member RAS oncogene family)	1	1.04
51	SLC25A26	1	1.38
52	APOE (apolipoprotein E)	1	1.05
53	MUC16 (mucin 16, cell surface associated)	1	0.93
54	KNTC1 (kinetochore associated 1)	1	1.18
55	PCCB (propionyl-CoA carboxylase subunit beta)	1	1.03
56	AKR1B1 (aldo-keto reductase family 1 member B)	1	0.79
57	CAMSAP1 (calmodulin regulated spectrin associated protein 1)	1	1.02
58	ITK (IL2 inducible T cell kinase)	1	1.09
59	CD82 (CD82 molecule)	1	0.84
60	WNT5B (Wnt family member 5B)	1	0.76
61	FOXL2 (forkhead box L2)	1	1
62	ASB9 (ankyrin repeat and SOCS box containing 9)	1	1.02
63	AZI2 (5-azacytidine induced 2)	1	0.92
64	ELOVL5 (ELOVL fatty acid elongase 5)	1	1.02
65	CASP1 (caspase 1)	1	1
66	OR2A42 (olfactory receptor family 2 subfamily A member 42)	1	0.97
67	MS4A10 (membrane spanning 4-domains A10)	1	1.06
68	NR2F6 (nuclear receptor subfamily 2 group F member 6)	1	0.97
